According to US20060058398A1, “Medicinal compositions containing vitamin k's as nerve growth factor potentiator and utilization thereof” (Hisamitsu Pharmaceutical Co., Inc., priority 2002, published 2006):
At least one compound was matched to its structure with a doubt left.

Tested on: PCD12 cells
Assay: Effect of each inhibitor on neurite elongation potentiated by vitamin K's
Type: cell-based
Conditions: PKC inhibitor chelerythrine chloride, concentration not printed (FIG. 4)
Protocol: In order to study the action mechanism of vitamin K's, influence of MAPK kinase inhibitor (PD98059), protein kinase A (PKA) inhibitor, and protein kinase C (PKC) inhibitor (chelerythrine chloride) on the effects for potentiating neurite elongation of vitamin K's in PCD12 cells were studied. Pre-incubation of cells was carried out for 1 hour in the presence or in the absence of the inhibitor before treatment of NGF or vitamin K compound. After 48 hours of incubation, the ratio of cells having neurites was examined.

COc1ccc2c(c[n+](C)c3c4cc5c(cc4ccc23)OCO5)c1OC [chelerythrine chloride]
inhibition of neurite elongation potentiated by vitamin K's: not observed
